Experimental data from patent US6759384B1 (Aventis Pharmaceuticals Inc., priority 1994, dated 2004).

Assay: general procedure: Fmoc solid-phase peptide synthesis; polystyrene resin cross-linked with 1% divinylbenzene with Rink linker; DIC/HOBt
Conditions: whole synthesis, scale of the general procedure 1 g of Rink resin (0.6 mmol NH2/g resin)

| Substance | final purity (method not given) (HPLC) [%] | final HPLC purity [%] |
| --- | --- | --- |
| Ac-Tyr-Ile-{Ψ(CH2NH)}-Arg-Leu-Pro-NH2 | >90 | – |
| Cyclo(Ser-Ida)-Ile-Arg-Leu-Ala-NH2 | – | >95 |
